No constants are given. Whether binding was seen depends on the method and setting. Some binding calls cover weakened binding; strength is not graded here.
Tests used:
[1] = target: KDR (form used in the ELISA, radioimmunoassay and BIAcore of the graft comparison not stated) (UniProt P35968); assay: BIAcore assay of KDR binding
[2] = target: KDR (form used in the ELISA, radioimmunoassay and BIAcore of the graft comparison not stated) (UniProt P35968); assay: KDR binding ELISA and radioimmunoassay of inhibition of labeled VEGF binding to KDR

Amino acid sequences for entries named in this document (tags omitted). Residues count along the entry.
UniProt P35968, residues 20-764: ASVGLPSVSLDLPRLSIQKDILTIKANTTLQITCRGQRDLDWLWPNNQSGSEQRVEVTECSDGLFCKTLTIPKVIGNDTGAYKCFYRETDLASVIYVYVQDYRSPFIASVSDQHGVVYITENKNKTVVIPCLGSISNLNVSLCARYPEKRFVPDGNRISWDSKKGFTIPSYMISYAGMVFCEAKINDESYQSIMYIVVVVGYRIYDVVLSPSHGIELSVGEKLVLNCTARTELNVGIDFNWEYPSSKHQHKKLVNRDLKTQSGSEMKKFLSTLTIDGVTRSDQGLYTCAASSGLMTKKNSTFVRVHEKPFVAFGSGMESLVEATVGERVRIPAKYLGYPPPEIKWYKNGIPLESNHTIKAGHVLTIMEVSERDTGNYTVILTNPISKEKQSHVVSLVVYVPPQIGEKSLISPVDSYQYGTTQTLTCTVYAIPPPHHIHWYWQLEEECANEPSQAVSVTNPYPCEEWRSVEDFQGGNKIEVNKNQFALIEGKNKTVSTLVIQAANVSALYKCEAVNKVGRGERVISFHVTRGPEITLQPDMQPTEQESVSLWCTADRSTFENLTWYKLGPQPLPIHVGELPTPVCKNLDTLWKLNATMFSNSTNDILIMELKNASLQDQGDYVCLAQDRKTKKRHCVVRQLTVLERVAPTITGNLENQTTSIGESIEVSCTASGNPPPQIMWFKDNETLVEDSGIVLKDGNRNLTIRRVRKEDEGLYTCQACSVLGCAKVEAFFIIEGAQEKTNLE

Row | binding [1] | binding [2] | Binder
1 | binds |  | graft gL3gH3 antibody (g165), whole antibody from CHO cells (antibody, V domains shown) VH: EVQLVESGGGLVQPGGSLRLSCAASGFTFSSYGMSWVRQAPGKGLEWVATITSGGSYTYYVDSVKGRFTISRDNAKNTLYLQMNSLRAEDTAVYYCVRIGEDALDYWGQGTLVTVSS VL: DIQMTQSPSSLSASVGDRVTITCRASQDIAGSLNWLQQKPGKAIKRLIYATSSLDSGVPKRFSGSRSGSDYTLTISSLQPEDFATYYCLQYGSFPPTFGQGTKVEIKR
2 |  | binds | mouse monoclonal antibody VR165 (antibody, mouse IgG2a, V domains shown, also called mIgG; murine IgG) VH: EVQLVESGGDLVKPGGSLKLSCAASGFTFSSYGMSWVRQTPDKRLQWVATITSGGSYTYYPDTVKGRFTISRDNAENTLYLQMSSLKSEDTAMYYCVRIGEDALDYWGQGTSVTVSS VL: DIQMTQSPSSLSASLGERVSLTCRASQDIAGSLNWLRQEPDGTIKRLIYATSSLDSGVPKRFSGSRSGSDYSLTISSLESEDFVDYYCLQYGSFPPTFGGGSKLEIKR

— patent US20090269840A1 (UCB, published 2009)
